Source: patent US9821077B2, “Diagnostic substances for optical imaging testing on the basis of nanoparticular formulations” (NANOPET PHARMA GMBH, priority 2007, dated 2017)
Some of these results come from one statement about several compounds together.

Tested on: plasma protein
Assay: Free portion of ICG after incubation in human serum and ultra centrifugation
Type: in vitro ADME
Details: aqueous solution, analogous experiment in human serum

Structure (SMILES): CC1(C)C(/C=C/C=C/C=C/C=C2\N(CCCCS(=O)(=O)O)c3ccc4ccccc4c3C2(C)C)=[N+](CCCCS(=O)(=O)[O-])c2ccc3ccccc3c21 [ICG, indocyanine green]
- free portion of ICG: < 5%
